Results deposited as PubChem BioAssay AID652272 (Drosophila RNAi Screening Center, 2013)

Test: 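Finding fly genes that regulate Hedgehog signal transduction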 (primary screen)
System: Drosophila clone 8 (Cl8) cells
Reagents: long dsRNA against Drosophila genes
Read-out: 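Plate reader light from a firefly reporter under a ptc promoter fragment that responds to Hedgehog, with Renilla light as transfection reference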
Direction: firefly Hh reporter signal: higher = more ptc reporter light; Renilla reference signal: higher = more Renilla control light
Hit rule: 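Called a hit if the two-replicate mean z-score lies below -2 or above +3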
Meaning of the calls: active = hit: reporter lowered or raised; inactive = not a hit
The screen tested about 21,000 reagents; below is a random part of those with a known target gene and a result. Over the whole deposit, 503 (2.4%) were called active. 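Raw plate light values, not normalised; calls rest on replicate z-scores that were not deposited; hits include reporter decreases as well as increases.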 Names joined by + are all predicted targets of the reagent. The record does not give: the amount of reagent, the time to read-out.

CG11670 [DRSC14342] gave firefly Hh reporter signal, replicate 1 = 87552; firefly Hh reporter signal, replicate 2 = 79827; Renilla reference signal, replicate 1 = 2769; Renilla reference signal, replicate 2 = 2240; inactive.
After knock-down of Liprin-alpha [DRSC02132] the results were firefly Hh reporter signal, replicate 1 = 87572; firefly Hh reporter signal, replicate 2 = 85611; Renilla reference signal, replicate 1 = 3416; Renilla reference signal, replicate 2 = 3328; inactive.
With knock-down of CG13737 [DRSC10064] the results were firefly Hh reporter signal, replicate 1 = 34549; firefly Hh reporter signal, replicate 2 = 59725; firefly Hh reporter signal, replicate 3 = 48812; Renilla reference signal, replicate 1 = 5131; Renilla reference signal, replicate 2 = 1477; inactive.
Cad96Ca (Cadherin 96Ca) [DRSC14220] gave firefly Hh reporter signal, replicate 1 = 4.86e5; firefly Hh reporter signal, replicate 2 = 79623; Renilla reference signal, replicate 1 = 23368; Renilla reference signal, replicate 2 = 5699; inactive.
Cad96Ca (Cadherin 96Ca) [DRSC16693] showed firefly Hh reporter signal, replicate 1 = 5.79e5; firefly Hh reporter signal, replicate 2 = 96023; Renilla reference signal, replicate 1 = 28551; Renilla reference signal, replicate 2 = 7376; inactive.
Rh5 (Rhodopsin 5) [DRSC03412] gave firefly Hh reporter signal, replicate 1 = 57096; firefly Hh reporter signal, replicate 2 = 38128; Renilla reference signal, replicate 1 = 2496; Renilla reference signal, replicate 2 = 1674; inactive.
After knock-down of CG12935 + Nop10 [DRSC07025], the record shows firefly Hh reporter signal, replicate 1 = 1.16e5; firefly Hh reporter signal, replicate 2 = 73259; Renilla reference signal, replicate 1 = 3335; Renilla reference signal, replicate 2 = 6636; inactive.
After knock-down of CG7695 [DRSC16289], the screen gave firefly Hh reporter signal, replicate 1 = 6.78e5; firefly Hh reporter signal, replicate 2 = 94848; Renilla reference signal, replicate 1 = 34076; Renilla reference signal, replicate 2 = 2620; inactive.
CG32248 [DRSC08102] showed firefly Hh reporter signal, replicate 1 = 1.52e5; firefly Hh reporter signal, replicate 2 = 2.13e5; Renilla reference signal, replicate 1 = 4384; Renilla reference signal, replicate 2 = 9388; inactive.
After knock-down of scyl (scylla) [DRSC11392], the record shows firefly Hh reporter signal, replicate 1 = 59136; firefly Hh reporter signal, replicate 2 = 63449; firefly Hh reporter signal, replicate 3 = 58825; Renilla reference signal, replicate 1 = 5472; Renilla reference signal, replicate 2 = 4368; inactive.
CG42534 [DRSC14722] showed firefly Hh reporter signal, replicate 1 = 79162; firefly Hh reporter signal, replicate 2 = 64896; Renilla reference signal, replicate 1 = 2967; Renilla reference signal, replicate 2 = 1545; inactive.
For CG42534 [DRSC14759] the deposit lists firefly Hh reporter signal, replicate 1 = 82934; firefly Hh reporter signal, replicate 2 = 55824; Renilla reference signal, replicate 1 = 3096; Renilla reference signal, replicate 2 = 1401; inactive.
CG42534 [DRSC16072] showed firefly Hh reporter signal, replicate 1 = 1.21e5; firefly Hh reporter signal, replicate 2 = 99682; Renilla reference signal, replicate 1 = 4793; Renilla reference signal, replicate 2 = 2372; inactive.
After knock-down of Rbbp5 (Retinoblastoma binding protein 5) [DRSC11778] the results were firefly Hh reporter signal, replicate 1 = 84433; firefly Hh reporter signal, replicate 2 = 1.03e5; Renilla reference signal, replicate 1 = 2656; Renilla reference signal, replicate 2 = 2619; inactive.
Against peo (pendolino) [DRSC05995], the entry reads firefly Hh reporter signal, replicate 1 = 84130; firefly Hh reporter signal, replicate 2 = 56032; Renilla reference signal, replicate 1 = 3920; Renilla reference signal, replicate 2 = 2395; inactive.
BigH1 (Histone H1 variant BigH1) [DRSC15491] showed firefly Hh reporter signal, replicate 1 = 91769; firefly Hh reporter signal, replicate 2 = 77620; Renilla reference signal, replicate 1 = 3444; Renilla reference signal, replicate 2 = 3372; inactive.
For Adk3 (Adenosine kinase 3) [DRSC05917], the entry reads firefly Hh reporter signal, replicate 1 = 1.33e5; firefly Hh reporter signal, replicate 2 = 97676; Renilla reference signal, replicate 1 = 5440; Renilla reference signal, replicate 2 = 3707; inactive.
Depletion of CG32638 [DRSC18968] gave: firefly Hh reporter signal, replicate 1 = 4.88e5; firefly Hh reporter signal, replicate 2 = 1.58e5; Renilla reference signal, replicate 1 = 25344; Renilla reference signal, replicate 2 = 3978; inactive.
After knock-down of CG4957 [DRSC02793], the screen gave firefly Hh reporter signal, replicate 1 = 1.48e5; firefly Hh reporter signal, replicate 2 = 69220; Renilla reference signal, replicate 1 = 3889; Renilla reference signal, replicate 2 = 5707; inactive.
Against Gr64b + Gr64c [DRSC08444], the values are firefly Hh reporter signal, replicate 1 = 74411; firefly Hh reporter signal, replicate 2 = 60040; Renilla reference signal, replicate 1 = 2305; Renilla reference signal, replicate 2 = 5251; inactive.
Gr64b + Gr64c [DRSC08445] scored firefly Hh reporter signal, replicate 1 = 89866; firefly Hh reporter signal, replicate 2 = 60537; Renilla reference signal, replicate 1 = 3211; Renilla reference signal, replicate 2 = 4806; inactive.

An excerpt from above, limited to “Renilla reference signal, replicate 1”:
CG13737 [DRSC10064] = 5131
Cad96Ca (Cadherin 96Ca) [DRSC14220] = 23368
